Source: the supplement of paper PMC12823440, “Inhibitors supercharge kinase turnover through native proteolytic circuits” (Nature, 2025)
Counter-ions that a name gives are not always drawn. The list shows a part of the results. The calls rarely recur for the same compound in another form.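 In K562 cells expressing nanoluciferase-fused kinases, luminescence was recorded at 4 h intervals between 2 and 18 h, normalized as percent of control with DMSO at 100% and a positive control at 0%. A significant (2 sigma) signal drop marks a time point as decreased. The authors' rule for a hit is not shown and takes in more than the number of time points.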

Chains of the proteins cited; added tags and fusions are not shown. Lines headed by an entry give the natural chain unless they say otherwise; changes in a name come on top.
UniProt Q16288, whole entry, looked up: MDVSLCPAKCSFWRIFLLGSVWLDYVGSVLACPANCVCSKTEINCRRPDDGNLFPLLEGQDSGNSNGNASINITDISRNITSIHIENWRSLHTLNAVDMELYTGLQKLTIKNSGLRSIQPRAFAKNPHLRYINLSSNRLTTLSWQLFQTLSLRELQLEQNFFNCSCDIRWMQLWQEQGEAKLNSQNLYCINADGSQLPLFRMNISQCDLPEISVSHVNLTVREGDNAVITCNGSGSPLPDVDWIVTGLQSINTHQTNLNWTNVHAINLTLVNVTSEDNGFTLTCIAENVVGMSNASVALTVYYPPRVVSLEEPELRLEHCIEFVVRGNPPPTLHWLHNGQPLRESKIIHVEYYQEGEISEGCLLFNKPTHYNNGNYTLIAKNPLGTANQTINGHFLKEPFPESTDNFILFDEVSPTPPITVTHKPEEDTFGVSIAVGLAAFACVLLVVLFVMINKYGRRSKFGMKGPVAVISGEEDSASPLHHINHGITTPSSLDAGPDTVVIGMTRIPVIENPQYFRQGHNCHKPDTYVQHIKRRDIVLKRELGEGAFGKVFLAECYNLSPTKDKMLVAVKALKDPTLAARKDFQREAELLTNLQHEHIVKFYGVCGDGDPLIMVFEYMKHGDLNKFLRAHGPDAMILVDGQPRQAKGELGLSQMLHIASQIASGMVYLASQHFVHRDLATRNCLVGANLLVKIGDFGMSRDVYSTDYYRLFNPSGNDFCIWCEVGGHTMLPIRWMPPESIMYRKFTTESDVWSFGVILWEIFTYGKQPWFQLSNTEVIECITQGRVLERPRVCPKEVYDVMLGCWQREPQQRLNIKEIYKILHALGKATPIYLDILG
UniProt Q96KB5: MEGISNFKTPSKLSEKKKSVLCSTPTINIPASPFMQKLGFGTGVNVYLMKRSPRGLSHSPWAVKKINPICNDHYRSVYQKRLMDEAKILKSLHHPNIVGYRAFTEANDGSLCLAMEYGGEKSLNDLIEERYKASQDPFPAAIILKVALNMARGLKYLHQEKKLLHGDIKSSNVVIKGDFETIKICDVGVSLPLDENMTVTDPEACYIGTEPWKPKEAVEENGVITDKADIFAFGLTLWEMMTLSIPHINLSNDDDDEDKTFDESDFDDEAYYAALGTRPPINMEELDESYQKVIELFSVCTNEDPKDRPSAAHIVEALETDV
UniProt P09619, whole entry: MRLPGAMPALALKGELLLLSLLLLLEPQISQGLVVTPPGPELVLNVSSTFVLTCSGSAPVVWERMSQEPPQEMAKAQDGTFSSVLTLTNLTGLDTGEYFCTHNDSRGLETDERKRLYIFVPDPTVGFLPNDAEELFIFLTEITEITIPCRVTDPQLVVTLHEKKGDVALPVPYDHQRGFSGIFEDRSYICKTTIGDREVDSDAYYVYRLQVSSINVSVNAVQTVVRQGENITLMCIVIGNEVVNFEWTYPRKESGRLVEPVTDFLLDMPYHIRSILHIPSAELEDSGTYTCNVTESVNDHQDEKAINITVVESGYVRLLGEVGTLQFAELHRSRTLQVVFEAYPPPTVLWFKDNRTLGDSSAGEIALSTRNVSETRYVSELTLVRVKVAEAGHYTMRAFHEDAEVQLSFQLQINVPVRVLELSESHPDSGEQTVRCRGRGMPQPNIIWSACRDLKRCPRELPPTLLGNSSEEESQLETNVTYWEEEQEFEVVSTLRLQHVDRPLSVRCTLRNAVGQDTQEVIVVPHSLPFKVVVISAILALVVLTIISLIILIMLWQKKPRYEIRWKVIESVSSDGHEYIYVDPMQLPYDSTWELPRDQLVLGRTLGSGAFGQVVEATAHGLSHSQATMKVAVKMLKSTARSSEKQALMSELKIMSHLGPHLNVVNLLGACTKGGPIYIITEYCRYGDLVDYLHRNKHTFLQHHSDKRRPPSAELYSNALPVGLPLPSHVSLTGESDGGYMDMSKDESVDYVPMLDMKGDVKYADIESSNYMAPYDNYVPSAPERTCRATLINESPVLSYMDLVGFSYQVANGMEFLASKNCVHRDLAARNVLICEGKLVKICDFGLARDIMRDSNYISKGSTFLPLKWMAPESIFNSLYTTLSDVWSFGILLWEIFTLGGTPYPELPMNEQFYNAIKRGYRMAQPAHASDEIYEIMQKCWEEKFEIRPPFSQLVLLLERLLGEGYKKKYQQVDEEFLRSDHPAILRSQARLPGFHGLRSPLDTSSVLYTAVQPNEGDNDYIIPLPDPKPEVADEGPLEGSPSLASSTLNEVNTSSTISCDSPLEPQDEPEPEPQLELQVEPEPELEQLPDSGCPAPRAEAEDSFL
UniProt Q15118, whole entry, looked up: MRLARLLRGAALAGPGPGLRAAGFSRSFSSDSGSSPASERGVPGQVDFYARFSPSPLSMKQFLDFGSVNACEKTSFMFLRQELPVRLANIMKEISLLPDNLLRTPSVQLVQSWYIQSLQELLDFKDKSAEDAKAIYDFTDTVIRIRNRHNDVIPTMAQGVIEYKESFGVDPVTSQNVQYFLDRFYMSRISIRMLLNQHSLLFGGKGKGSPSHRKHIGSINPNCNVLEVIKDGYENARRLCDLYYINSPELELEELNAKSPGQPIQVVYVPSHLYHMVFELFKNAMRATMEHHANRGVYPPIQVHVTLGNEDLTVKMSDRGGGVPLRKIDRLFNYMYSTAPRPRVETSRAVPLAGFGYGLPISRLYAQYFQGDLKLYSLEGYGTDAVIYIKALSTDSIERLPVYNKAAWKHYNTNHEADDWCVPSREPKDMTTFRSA
UniProt O15530: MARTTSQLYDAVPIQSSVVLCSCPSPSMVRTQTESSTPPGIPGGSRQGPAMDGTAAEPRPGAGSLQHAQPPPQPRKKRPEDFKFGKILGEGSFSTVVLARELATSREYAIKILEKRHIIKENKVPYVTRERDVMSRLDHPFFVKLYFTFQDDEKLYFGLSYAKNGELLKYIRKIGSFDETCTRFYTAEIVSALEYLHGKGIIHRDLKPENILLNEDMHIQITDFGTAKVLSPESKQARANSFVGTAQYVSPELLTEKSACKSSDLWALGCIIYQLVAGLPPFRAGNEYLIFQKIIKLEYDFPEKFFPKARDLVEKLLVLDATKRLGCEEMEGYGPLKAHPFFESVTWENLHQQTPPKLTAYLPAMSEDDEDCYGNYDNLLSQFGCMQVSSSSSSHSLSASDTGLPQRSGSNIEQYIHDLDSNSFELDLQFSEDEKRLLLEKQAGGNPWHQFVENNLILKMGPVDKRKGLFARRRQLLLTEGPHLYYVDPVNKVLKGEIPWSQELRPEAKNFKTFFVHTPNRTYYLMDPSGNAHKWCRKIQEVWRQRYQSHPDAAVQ
UniProt P42356, whole entry, looked up: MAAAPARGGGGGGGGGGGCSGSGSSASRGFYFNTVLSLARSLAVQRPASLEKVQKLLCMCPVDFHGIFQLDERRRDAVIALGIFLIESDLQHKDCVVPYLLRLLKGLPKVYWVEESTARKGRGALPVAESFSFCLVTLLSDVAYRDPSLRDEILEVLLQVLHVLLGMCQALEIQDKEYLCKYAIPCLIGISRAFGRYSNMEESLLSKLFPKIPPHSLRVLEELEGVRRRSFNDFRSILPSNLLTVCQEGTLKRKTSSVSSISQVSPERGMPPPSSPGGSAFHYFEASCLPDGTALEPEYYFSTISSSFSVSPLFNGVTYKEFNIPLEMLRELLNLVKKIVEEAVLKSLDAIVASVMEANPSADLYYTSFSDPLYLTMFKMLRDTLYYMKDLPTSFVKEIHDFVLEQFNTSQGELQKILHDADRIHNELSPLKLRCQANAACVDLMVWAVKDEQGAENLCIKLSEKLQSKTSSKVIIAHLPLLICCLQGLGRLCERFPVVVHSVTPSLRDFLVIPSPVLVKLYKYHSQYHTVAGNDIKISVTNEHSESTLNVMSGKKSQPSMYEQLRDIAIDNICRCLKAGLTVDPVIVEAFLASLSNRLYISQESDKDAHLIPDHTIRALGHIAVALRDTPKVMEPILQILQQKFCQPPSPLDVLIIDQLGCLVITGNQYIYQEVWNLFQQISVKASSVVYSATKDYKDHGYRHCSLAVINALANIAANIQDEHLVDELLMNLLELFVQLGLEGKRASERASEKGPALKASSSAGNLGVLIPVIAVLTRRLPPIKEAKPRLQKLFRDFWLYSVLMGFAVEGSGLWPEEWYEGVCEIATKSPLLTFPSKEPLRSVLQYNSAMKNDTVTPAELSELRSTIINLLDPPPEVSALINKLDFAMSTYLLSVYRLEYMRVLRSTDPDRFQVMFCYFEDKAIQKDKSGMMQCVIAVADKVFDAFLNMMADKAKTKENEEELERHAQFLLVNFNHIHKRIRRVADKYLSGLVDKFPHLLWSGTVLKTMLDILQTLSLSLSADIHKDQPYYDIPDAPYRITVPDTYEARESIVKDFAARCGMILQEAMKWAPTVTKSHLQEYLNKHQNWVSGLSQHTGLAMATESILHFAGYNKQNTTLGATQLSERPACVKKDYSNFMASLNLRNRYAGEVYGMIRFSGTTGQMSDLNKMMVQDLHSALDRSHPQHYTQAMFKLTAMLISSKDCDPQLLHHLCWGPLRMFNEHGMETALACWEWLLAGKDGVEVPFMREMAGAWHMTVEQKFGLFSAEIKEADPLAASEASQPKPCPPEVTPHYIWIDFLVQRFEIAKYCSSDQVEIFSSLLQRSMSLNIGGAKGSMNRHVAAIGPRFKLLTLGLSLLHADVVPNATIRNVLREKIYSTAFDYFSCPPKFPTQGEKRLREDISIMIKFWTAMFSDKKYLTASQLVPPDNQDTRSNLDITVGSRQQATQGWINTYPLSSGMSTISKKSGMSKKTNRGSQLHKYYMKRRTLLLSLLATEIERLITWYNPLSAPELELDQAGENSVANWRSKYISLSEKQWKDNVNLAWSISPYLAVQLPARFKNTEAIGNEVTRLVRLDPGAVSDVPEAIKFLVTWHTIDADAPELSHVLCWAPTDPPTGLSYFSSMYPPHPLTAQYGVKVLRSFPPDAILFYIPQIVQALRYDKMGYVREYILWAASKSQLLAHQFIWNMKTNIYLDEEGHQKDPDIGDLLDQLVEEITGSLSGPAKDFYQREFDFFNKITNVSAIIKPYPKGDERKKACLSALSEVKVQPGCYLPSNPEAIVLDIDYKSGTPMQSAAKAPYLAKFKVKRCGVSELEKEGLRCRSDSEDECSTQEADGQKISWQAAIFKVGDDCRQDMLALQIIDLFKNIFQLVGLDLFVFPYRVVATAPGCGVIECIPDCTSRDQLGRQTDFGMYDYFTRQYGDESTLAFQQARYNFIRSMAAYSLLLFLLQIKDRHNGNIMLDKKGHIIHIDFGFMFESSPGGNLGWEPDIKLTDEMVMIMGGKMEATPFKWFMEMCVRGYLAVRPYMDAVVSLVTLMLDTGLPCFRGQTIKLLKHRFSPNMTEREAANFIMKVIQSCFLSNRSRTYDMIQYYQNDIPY
UniProt P53350, whole entry: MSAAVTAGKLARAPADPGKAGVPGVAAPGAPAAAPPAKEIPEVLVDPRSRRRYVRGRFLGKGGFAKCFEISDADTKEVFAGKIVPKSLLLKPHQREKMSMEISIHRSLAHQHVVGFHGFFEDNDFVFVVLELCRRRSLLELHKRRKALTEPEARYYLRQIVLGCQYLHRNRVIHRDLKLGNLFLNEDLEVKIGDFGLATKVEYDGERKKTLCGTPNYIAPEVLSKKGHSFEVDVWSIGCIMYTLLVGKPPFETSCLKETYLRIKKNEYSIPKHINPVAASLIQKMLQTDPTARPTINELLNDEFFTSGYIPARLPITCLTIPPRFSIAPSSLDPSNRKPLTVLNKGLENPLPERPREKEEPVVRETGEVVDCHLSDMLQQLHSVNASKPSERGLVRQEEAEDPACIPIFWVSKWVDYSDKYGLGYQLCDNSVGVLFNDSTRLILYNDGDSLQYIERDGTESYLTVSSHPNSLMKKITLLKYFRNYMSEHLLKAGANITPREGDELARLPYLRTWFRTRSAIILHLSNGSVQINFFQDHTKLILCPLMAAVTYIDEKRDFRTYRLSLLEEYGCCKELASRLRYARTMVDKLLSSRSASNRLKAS
UniProt Q13131: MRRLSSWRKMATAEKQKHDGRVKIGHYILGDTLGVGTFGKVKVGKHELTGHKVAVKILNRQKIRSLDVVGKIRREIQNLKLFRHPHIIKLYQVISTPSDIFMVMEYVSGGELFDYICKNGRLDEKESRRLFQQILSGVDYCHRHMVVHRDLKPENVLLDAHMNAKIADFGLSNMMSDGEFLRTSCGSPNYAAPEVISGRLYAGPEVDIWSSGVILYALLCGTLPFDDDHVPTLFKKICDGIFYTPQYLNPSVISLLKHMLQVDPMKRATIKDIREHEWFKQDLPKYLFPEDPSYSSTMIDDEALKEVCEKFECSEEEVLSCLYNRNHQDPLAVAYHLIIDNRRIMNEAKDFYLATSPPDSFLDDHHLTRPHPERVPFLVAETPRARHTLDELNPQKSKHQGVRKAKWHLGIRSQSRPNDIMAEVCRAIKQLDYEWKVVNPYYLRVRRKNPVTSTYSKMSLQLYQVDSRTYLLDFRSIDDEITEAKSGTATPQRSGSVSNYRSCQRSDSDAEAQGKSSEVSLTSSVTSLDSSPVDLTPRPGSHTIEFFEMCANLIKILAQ

How the values were obtained:
Assay in all cases: number of time points (of 5) at which kinase-Nluc abundance scored as decreased, DMSO-normalised (count); higher = more persistent destabilization
Conditions in all cases: K562; 2-18 h
NTRK3 = NTRK3 (UniProt Q16288)
PAK4 = PAK4 (UniProt O96013)
PBK = PBK (UniProt Q96KB5)
PDGFRB = PDGFRB (UniProt P09619)
PDK1 = PDK1 (UniProt Q15118)
PDPK1 = PDPK1 (UniProt O15530)
PIK4CA = PIK4CA (UniProt P42356)
PIK4CB = PIK4CB (UniProt Q9UBF8)
PLK1 = PLK1 (UniProt P53350)
PRKAA1 = PRKAA1 (UniProt Q13131)

Measured: number of time points

Cc1nc(Nc2cnn(C3CCNCC3)c2)nc2c1N(C)C(=O)c1cc3ccccc3cc1N2C (2.5 µM)
0: all assays above

CNC(=O)CN1CCC(Oc2cc3c(Nc4cccc(Cl)c4F)ncnc3cc2OC)CC1 [Sapitinib] (10 µM)
0: all assays above

COc1cccc(-c2cc(=O)c3ccccc3o2)c1N (10 µM)
0: all assays above

Nc1nccc(Oc2ccc3c(C(=O)Nc4cccc(C(F)(F)F)c4)cccc3c2)n1 (10 µM)
4: PDPK1 | PIK4CB
3: PIK4CA | PLK1
0: all other assays above

CNCc1ccccc1Sc1cccc2ccccc12 [IFN alpha-IFNAR-IN-1 (hydrochloride)] (10 µM)
4: PDPK1
1: PDGFRB | PIK4CA | PIK4CB | PRKAA1
0: all other assays above

N#Cc1cc(N2CCC(C(=O)N3N=CC[C@H]3c3cc(F)cc(F)c3)CC2)ncn1 (10 µM)
0: all assays above

CCOc1cc(=O)[nH]cc1-c1ccc(CC(=O)Nc2cc(C(C)(C)C(F)(F)F)on2)c(F)c1 (10 µM)
0: all assays above

O=C1NC(=O)C(Cc2c[nH]c3c(Cl)cccc23)N1 (stereo not drawn) [Necroptosis-IN-1] (10 µM)
0: all assays above

O=[N+]([O-])c1ccc(-c2nc(-c3ccc(F)cc3)c(-c3ccncc3)[nH]2)cc1 (10 µM)
0: all assays above

O=c1cc(-c2ccc(O[C@@H]3O[C@H](CO)[C@@H](O)[C@H](O)[C@H]3O)cc2)oc2cc(O)c([C@@H]3O[C@H](CO)[C@@H](O)[C@H](O)[C@H]3O[C@@H]3OC[C@H](O)[C@H](O)[C@H]3O)c(O)c12 [Vaccarin] (10 µM)
0: all assays above

Cc1nn(CC(F)(F)F)cc1Nc1ncc(Br)c(NCc2ccc(S(N)(=O)=O)cc2)n1 (10 µM)
0: all assays above

Oc1ccc(-c2cnc3ccc(NCc4ccco4)nn23)cc1 [IRAK inhibitor 2] (2.5 µM)
0: all assays above

C[C@@H](NC(=O)c1ncnc(N)c1Cl)c1ncc(C(=O)Nc2cc(C(F)(F)F)c(Cl)cn2)s1 (2.5 µM)
0: PAK4 | PBK | PDK1 | PLK1
4: PDPK1
2: all other assays above

CC/C(=C(\c1ccccc1)c1ccc(OCCNC)cc1)c1ccccc1 [N-Desmethyltamoxifen (hydrochloride)] (2.5 µM)
0: all assays above

CS(=O)(=O)c1ccc([C@@H](CC2CCCC2)C(=O)Nc2nccs2)cc1 (10 µM)
0: all assays above

CCC(F)(F)c1cc(N2CCC(S(C)(=O)=O)CC2)nc2sc(C(N)=O)c(N)c12 (10 µM)
0: all assays above

CN1CCN(Cc2ccc(-c3cnc4[nH]cc(-c5ccc6[nH]ccc6c5)c4c3)cc2)CC1 (2.5 µM)
0: all assays above

O=C(Nc1ccc(Cl)cc1)C1CN(C(=O)c2cccc(-c3ccco3)c2)CC(F)(F)C1 (stereo not drawn) (2.5 µM)
0: all assays above

CCOC(=O)c1c(Nc2ccccc2Cl)oc(/C=C2\C=Nc3ncccc32)c1O (10 µM)
0: all assays above

COc1ccc(-c2cc(=O)c3c(O)cc(O)cc3o2)cc1-c1c(O)cc(O)c2c(=O)cc(-c3ccc(O)cc3)oc12 [Bilobetin] (2.5 µM)
0: all assays above

O=C(NCc1ccn[nH]1)c1cc([C@@H]2CCNC[C@H]2COc2ccc3c(c2)OCO3)ccc1F [GRK2-IN-1 (hydrochloride)] (10 µM)
0: all assays above

N#CC(=C(/N)Sc1ccccc1N)/C(C#N)=C(\N)Sc1ccccc1N (10 µM)
4: PDPK1
0: all other assays above

CC(C1CC1)n1cnc2c(NCc3cccc(C(F)(F)F)c3)nc(NCCN(C)C)nc21 (stereo not drawn) (10 µM)
0: all assays above

CCOc1cc(N2CCC(O)CC2)ccc1Nc1ncc2c(n1)N(C1CCCC1)CCC(=O)N2C (2.5 µM)
0: all assays above

Cn1c(N2CCO[C@@H](c3ccc(F)cc3)C2)nc(-c2ccncn2)cc1=O (10 µM)
0: all assays above

Nc1ccc(C(=O)Nc2cccc(-c3nc(N4CCOCC4)c4oc5ncccc5c4n3)c2)cn1 (10 µM)
3: PDGFRB
4: PDPK1
0: all other assays above

CC1=C(C#N)C(c2ccc3[nH]nc(C)c3c2)C(C#N)=C(C)N1 (10 µM)
0: all assays above

CCCS(=O)(=O)N[C@H]1C[C@@H](N(C)c2ncnc3[nH]ccc23)C1 [Abrocitinib] (10 µM)
0: all assays above

CN1CCN(c2ccc(-n3cc(-c4ccncc4OCC4CCNCC4)cn3)cc2)CC1 [MELK-8a (hydrochloride)] (10 µM)
3: PDPK1 | PLK1 | PRKAA1
2: PDGFRB | PIK4CB
0: all other assays above

COc1ccc(CCNCc2ccc(OCc3ccc(Cl)nc3)c(OC)c2)cc1OC [SBE13 (Hydrochloride)] (10 µM)
0: all assays above

CNCCOc1ccccc1C1(Nc2nccn(-c3cc(C(=O)NC4CC4)cc(F)c3C)c2=O)CC1 (10 µM)
0: all assays above

C[C@@H]1COC(Nc2ccc3ncnc(Nc4ccc(OCc5nccs5)c(Cl)c4)c3c2)=N1 [Varlitinib] (10 µM)
1: PRKAA1
0: all other assays above

CC(ONC(=O)c1cc(C(F)(F)F)cc(C(F)(F)F)c1)C(=O)Nc1ccc(Cl)cc1 (stereo not drawn) (2.5 µM)
0: all assays above

COc1cc(N2CCC(O)CC2)ccc1Nc1nc(Nc2ccccc2S(=O)(=O)C(C)C)c2[nH]cnc2n1 (10 µM)
0: all assays above

Cc1ncsc1-c1ccc(CNC(=O)[C@@H]2C[C@@H](O)CN2C(=O)[C@@H](NC(=O)COCCOc2ccc(-c3cc(Nc4ccc(OC(F)(F)F)cc4)ncn3)cc2)C(C)(C)C)cc1 (2.5 µM)
1: NTRK3 | PRKAA1
2: PDPK1 | PIK4CA | PLK1
3: PIK4CB
0: all other assays above

Nc1ccc(-c2nc3ccc(-c4nc5ccc(N)cc5[nH]4)cc3[nH]2)cc1 (10 µM)
0: all assays above

CC(C)(Oc1ccc(Cl)cc1)C(=O)Nc1ccc(OCc2ccc(C#N)cc2)cc1 [AMPK activator 4] (10 µM)
0: all assays above

Cc1ccc(C2CC(=O)NC(SCC(=O)Nc3nccs3)=C2C#N)cc1 (stereo not drawn) [Necrostatin-34] (10 µM)
0: all assays above

CN(C)CCOc1cc(-c2cn[nH]c2)ccc1NC(=O)C1COc2ccccc2O1 (stereo not drawn) (10 µM)
0: all assays above

O=S(=O)(c1ccc(O)cc1O)N1Cc2cc(O)cc(O)c2C1 (10 µM)
0: all assays above

O=C(CCl)c1c[nH]c2ccccc12 (2.5 µM)
0: all assays above

C=CC(=O)Nc1cc(Nc2nccc(-c3cn(C)c4ccccc34)n2)c(OCC(F)(F)F)nc1N(C)CCNC [AST5902  (trimesylate)] (2.5 µM)
2: PLK1
0: all other assays above

CN1CCN(Cc2ccc(-c3cn(C4CCC(O)CC4)c4nc(NCCC5CC5)ncc34)cc2)CC1 (stereo not drawn) (2.5 µM)
3: NTRK3
1: PRKAA1
0: all other assays above

CN1C(=O)[C@@H](NC(=O)c2cc(Cc3ccccc3)on2)COc2ccccc21 (10 µM)
0: all assays above

CCOC(=O)c1c(N2CCc3ccc(OC)cc3C2)oc(C=C2C=Nc3ncccc32)c1O (10 µM)
0: all assays above

O=C(O)/C=C(\CCc1ccc(Cl)cc1)c1ccccc1 (10 µM)
not listed: PDPK1
0: all other assays above

Cc1nc2c(NCc3cccc(S(C)(=O)=O)c3)nccn2c1-c1ccc(O)c(F)c1 (10 µM)
not listed: PIK4CB
0: all other assays above
